Results are given in words; binding and its absence hold for the method and conditions named. Some binding calls cover weakened binding; strength is not graded here.
Target: Human IL-6 (human, UniProt P05231 30-212)
Assay: Octet bio-layer interferometry, antibody captured on anti-human IgG1 Fc sensor

Chains of the proteins cited; added tags and fusions are not shown. Lines headed by an entry give the natural chain unless they say otherwise; changes in a name come on top.
UniProt P05231: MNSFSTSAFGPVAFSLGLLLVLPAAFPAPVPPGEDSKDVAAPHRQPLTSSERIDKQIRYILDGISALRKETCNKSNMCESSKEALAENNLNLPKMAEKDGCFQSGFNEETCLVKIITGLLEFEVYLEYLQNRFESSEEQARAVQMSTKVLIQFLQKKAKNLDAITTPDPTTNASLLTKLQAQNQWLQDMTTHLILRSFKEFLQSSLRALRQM

B1: Ab7 (antibody, V domains shown)
VH: QSLEESGGRLVTPGTPLTLTCTASGFSLSNYYMTWVRQAPGKGLEWIGMIYGSDETAYANWAIGRFTISKTSTTVDLKMTSLTAADTATYFCARDDSSDWDAKFNLWGQGTLVTVSS
VL: AYDMTQTPASVSAAVGGTVTIKCQASQSINNELSWYQQKSGQRPKLLIYRASTLASGVSSRFKGSGSGTEFTLTISDLECADAATYYCQQGYSLRNIDNAFGGGTEVVVKR
binding: binds
